# Hit rate of the full screen: of about 310,000 compounds, about 17,000 (5.5%) were called active. The shares of active, inactive and inconclusive entries below differ from those in the screen. The call rests on the fitted dose curve; in most records, active means well fitted inhibition curve with a large enough effect; inconclusive means small, poorly fitted or top-dose-only effect, or effect the other way; inactive means no such curve, though single readings can be large or run the other way. Potencies beside an inconclusive call are fits to weak or partial responses and may not hold up.
# Chains of the proteins cited; added tags and fusions are not shown. Lines headed by an entry give the natural chain unless they say otherwise; changes in a name come on top.
# UniProt P51450: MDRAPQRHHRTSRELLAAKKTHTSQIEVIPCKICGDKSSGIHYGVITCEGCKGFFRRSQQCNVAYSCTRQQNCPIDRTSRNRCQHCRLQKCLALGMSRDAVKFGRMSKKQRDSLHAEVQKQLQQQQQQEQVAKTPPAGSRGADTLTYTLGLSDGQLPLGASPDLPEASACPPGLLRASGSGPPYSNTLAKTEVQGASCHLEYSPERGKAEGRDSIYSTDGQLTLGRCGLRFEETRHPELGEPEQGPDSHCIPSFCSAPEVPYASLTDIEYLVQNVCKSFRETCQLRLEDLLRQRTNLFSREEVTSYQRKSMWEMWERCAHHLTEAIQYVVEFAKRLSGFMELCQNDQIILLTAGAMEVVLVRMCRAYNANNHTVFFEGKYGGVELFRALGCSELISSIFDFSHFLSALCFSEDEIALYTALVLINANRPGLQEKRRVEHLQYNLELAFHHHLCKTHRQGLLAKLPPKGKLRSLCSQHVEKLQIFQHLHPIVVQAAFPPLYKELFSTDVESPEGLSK
# Target: Nuclear receptor ROR-gamma (Mus musculus) (UniProt P51450)
# Experiment: qHTS for inhibitors of ROR gamma transcriptional activity; further: nearly all actives have a fitted effect of over 60% in size
# Conditions: Drosophila S2 Gal4-RORgamma UAS-luciferase reporter, 20 h; activity change, negative = inhibition: at 53.6 µM (top of the series)
# In short: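 Using a luciferase readout, inhibitors were identified by reduced reporter activity in Drosophila cells coexpressing a copper-inducible Gal4–ROR gamma fusion and UAS-driven Photinus luciferase, incubated 20 hr after 700 uM copper sulfate.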
# On the % scale 0 is the no-effect control and ±100 the full control effect; potency means the concentration at half of the fitted maximal effect.
SMILES,"activity change, negative = inhibition",Potency
O=C(Nc1ccccc1Cl)c1ccccc1Cl,inactive: -1.95%,–
COc1cccc(OCCn2cccc2/C=C2/C(=N)N3OC(C)=CC3=NC2=O)c1,inactive: -1.3%,–
Nc1ccc(/C=C/c2ccc(N)cc2S(=O)(=O)O)c(S(=O)(=O)O)c1,inactive: 25.1%,–
Cc1cccc(Nc2ccccc2C(=O)O)c1C,–,"inconclusive: 35.5 µM [activator, single point]"
Cc1ccc(NC(=O)c2nn(C34CC5CC(CC(C5)C3)C4)cc2[N+](=O)[O-])cc1,–,"inconclusive: 1.12 µM [activator, partial curve]"
COc1ccc(C(=O)N2CCN(c3nc(C4CC4)nc4sc(C)c(C)c34)CC2)cc1,–,"inconclusive: 17.8 µM [activator, single point]"
Cc1ccsc1C1C(C(=O)O)c2ccccc2C(=O)N1C (stereo not given),inactive: 16.4%,–
COc1ccccc1-c1ccc(NC2CCCCC2)nn1,–,"inconclusive: 31.6 µM [activator, single point]"
CSc1nc(N(C)C)nc(N2CC(=O)N(CCNS(=O)(=O)c3ccc(C)cc3)C2=N)n1,–,"inconclusive: 10 µM [activator, partial curve]"
O=C(/C=C\Nc1ccc2c(c1)OCO2)c1cccs1,–,"inconclusive: 17.8 µM [inhibitor, single point]"
O=C1C(Cl)=C(Nc2ccc3cn[nH]c3c2)C(=O)c2ccccc21,–,active: 7.08 µM
O=C(CSc1nnc(-c2ccccc2Br)o1)Nc1nncs1,–,"inconclusive: 17.8 µM [inhibitor, single point]"
CC(C)c1ccc(NC2CCCN(C(=O)CCCn3cncn3)C2)cc1 (stereo not given),–,"inconclusive: 25.1 µM [activator, single point]"
CC1CCCN(C/C(O)=C(\C#N)c2nc3ccccc3[nH]2)C1 (stereo not given),–,"inconclusive: 22.4 µM [inhibitor, single point]"
N#CC1=C2N=C(N)c3ccccc3N2C2=C(C(=O)CCC2)C1c1cccc(Cl)c1 (stereo not given),–,"inconclusive: 6.31 µM [activator, partial curve]"
CCOc1nc(Oc2cccc(C(=O)O)c2)nc(Oc2cccc(C(=O)O)c2)n1,inactive: -6.2%,–
OCC#CCSc1nnc(-c2ccc(Br)cc2)o1,–,"inconclusive: 0.316 µM [activator, partial curve, poor fit]"
COc1cc(NC(=O)CNc2cccc(S(=O)(=O)N3CCCC3)c2)cc(OC)c1,–,"inconclusive: 20 µM [activator, single point]"
COc1ccc(C(=S)NCS(=O)(=O)c2ccc(C)cc2)cc1,–,active: 15.8 µM
COc1ccc(-c2ccc(-c3nnn(CC(C)=O)n3)cc2)cc1,–,"inconclusive: 0.447 µM [activator, full curve, poor fit]"
CCOc1ccc(N2Nc3n[nH]c(N)c3N2)cc1,–,"inconclusive: 0.316 µM [inhibitor, full curve, poor fit]"
COc1cc(C2NCCC(=O)C2(C)C)cc(OC)c1OC (stereo not given),inactive: -5.9%,–
CC1CC(C)CN(CCCn2c(=S)[nH]c3ccccc3c2=O)C1 (stereo not given),–,"inconclusive: 22.4 µM [inhibitor, single point]"
Cn1cccc1Cc1nnc(SCC(=O)Nc2cccc(F)c2)n1-c1ccc(F)cc1,–,"inconclusive: 35.5 µM [activator, single point]"

# Reprinted at random: 3 records from the list, in no set order.
SMILES,"activity change, negative = inhibition",Potency
COc1ccccc1-c1ccc(NC2CCCCC2)nn1,–,"inconclusive: 31.6 µM [activator, single point]"
CC(C)c1ccc(NC2CCCN(C(=O)CCCn3cncn3)C2)cc1 (stereo not given),–,"inconclusive: 25.1 µM [activator, single point]"
OCC#CCSc1nnc(-c2ccc(Br)cc2)o1,–,"inconclusive: 0.316 µM [activator, partial curve, poor fit]"

# Next part.

SMILES,"activity change, negative = inhibition",Potency
CCOC(=O)C1=C(c2ccccc2)N=C2SCC(=O)N2C1c1ccc(OCC)c(OCC)c1 (stereo not given),–,"inconclusive: 0.501 µM [inhibitor, single point]"
Cc1cc(NS(=O)(=O)c2ccccc2)c(C)c(Cl)c1O,–,"inconclusive: 35.5 µM [inhibitor, single point]"
CCCCc1ccc(S(=O)(=O)N/N=C(/C)c2ccncc2)cc1,–,"inconclusive: 14.1 µM [activator, partial curve]"
O=C(OCc1ccccc1)c1cccc(-c2nnn(Cc3ccccc3)n2)c1,–,"inconclusive: 1.26 µM [activator, partial curve]"
O=C(c1ccc2c(=O)n(C3CCCC3)c(=S)[nH]c2c1)N1CCc2ccccc21,–,active: 1 µM
O=C(c1ccccc1F)N1CCN(c2ccc([N+](=O)[O-])c3ncccc23)CC1,–,"inconclusive: 15.8 µM [activator, single point]"
COc1ccc(C2/C=C\CN(C(=O)C3CCCCC3)CC(=O)N2Cc2ccc(F)cc2)cc1 (stereo not given),–,inactive
COc1ccccc1NC(=O)C/C(C)=N/NC(=O)C12CC3CC(CC(C3)C1)C2,–,"inconclusive: 25.1 µM [inhibitor, single point]"
COc1ccccc1NC(=O)Cn1nnc(C(=O)Nc2ccccc2)c1N,–,"inconclusive: 35.5 µM [activator, single point]"
O=C(C1CC1)N1CCc2cc(Br)cc(S(=O)(=O)N3CCN(c4ccccn4)CC3)c21,inactive: 1.47%,–
OC1CCC2Cc3ccccc3N=C12 (stereo not given),inactive: 8.81%,–
COc1ccc(S(=O)(=O)N2CCN(CC(=O)Nc3cc(C(F)(F)F)ccc3Cl)CC2)cc1,inactive: 31.4%,–
COc1cc(NC(=O)CCc2ccccc2)nc(OC)n1,–,"inconclusive: 3.98 µM [activator, full curve, poor fit]"
Cc1cc(NC(=O)c2ccccc2)ncc1NC(=O)c1ccco1,–,"inconclusive: 35.5 µM [inhibitor, single point]"
Cc1ccc(C2(c3ccc(C)cc3)CC2C(=O)Nc2ccc([N+](=O)[O-])cc2O)cc1 (stereo not given),–,"inconclusive: 31.6 µM [inhibitor, single point]"
C[C@@H](C[C@@H](O)[C@H](O)C(C)(C)O)[C@@H]1CC[C@]2(C)C3=CC[C@H]4C(C)(C)C(=O)CC[C@]4(C)[C@H]3CC[C@@]12C,–,active: 4.47 µM
CCOc1ccc2nc(NC(=S)NCc3ccccc3)sc2c1,–,active: 2.24 µM
COc1ccccc1-c1c(C(F)(F)F)oc2cc(OC(=O)c3cccc([N+](=O)[O-])c3C)ccc2c1=O,–,"inconclusive: 35.5 µM [activator, single point]"
O=C(NC1CCCc2c1cnn2-c1ccc(F)cc1F)c1ccccc1N1CCOCC1 (stereo not given),–,"inconclusive: 11.2 µM [activator, partial curve]"
CCOc1ncnc2c1[nH]c1ccccc12,–,"inconclusive: 10 µM [activator, partial curve]"
Cn1cc(CCC(=O)NC2CC2)c2ccccc21,inactive: -22.2%,–
COc1cccc(NC(=O)CN2C(=O)COc3ccc(C)cc32)c1,inactive: 0.877%,–
CC(C)(C)NC(=O)C(c1ccc(F)cc1)N(Cc1ccco1)C(=O)CCC(=O)Nc1nccs1 (stereo not given),–,"inconclusive: 4.47 µM [activator, partial curve]"
COc1ccc(OC)c(NC(=O)c2c(NC(=O)CNCc3ccco3)sc3c2CCC3)c1,–,"inconclusive: 14.1 µM [inhibitor, single point]"

SMILES,"activity change, negative = inhibition",Potency
CCO[C@H]1OC(C(=O)NCc2ccccc2)=C[C@@H](c2ccc(C(F)(F)F)cc2)[C@@H]1CCCO,–,"inconclusive: 31.6 µM [activator, single point]"
CCOc1ccc2nc(NCCNC(=O)Nc3ccccc3)c(C#N)cc2c1,–,"inconclusive: 3.55 µM [inhibitor, partial curve, poor fit]"
Cc1ccc(Oc2ccc(S(=O)(=O)N3CCOCC3)cc2C(N)=O)cc1C,inactive: 4.19%,–
O=C(CSc1nnc(-c2c[nH]c3ccccc23)o1)N1c2ccccc2CCc2ccccc21,–,"inconclusive: 0.891 µM [activator, full curve, poor fit]"
CCC(C)c1ccc(NC(=S)NCc2ccccc2OC)cc1 (stereo not given),–,active: 2.24 µM
CCOC(CCNC(=O)c1cn(CCOC)c(=O)c2c1c1ccccc1n2C)OCC,inactive: -0.745%,–
Cn1cc(CN2CCC(C(=O)Nc3ccc(Oc4ccccc4F)cc3)CC2)cn1,inactive: -10.1%,–
Cc1cc(-c2ccccc2)nc(Oc2ccc(C(C)(C)C)cc2)c1S(C)(=O)=O,inactive: 17.8%,–
O=[N+]([O-])c1cccc(/C=N/n2c(-c3cccnc3)n[nH]c2=S)c1,–,"inconclusive: 25.1 µM [inhibitor, single point]"
COc1ccc(CCNC(=O)c2cc(COc3c(C)cccc3C)on2)c(OC)c1,inactive: 6.52%,–
CN1C(=O)C(C)(C)c2cc(S(=O)(=O)N3CCCC(C(=O)NCc4ccccc4Cl)C3)ccc21 (stereo not given),–,"inconclusive: 35.5 µM [activator, single point]"
Oc1csc(Cc2nc(-c3ccc4ccccc4c3)cs2)n1,–,active: 11.2 µM
Cc1ccc(S(=O)(=O)N2CCN(C(=O)c3ccc(OCc4c(C)noc4C)cc3)CC2)cc1,inactive: -22.1%,–
CN(C(=O)c1ccco1)c1nc(-c2ccc(Cl)cc2)cs1,–,"inconclusive: 7.94 µM [activator, partial curve]"
CCN(CC)c1ccc2c(c1)oc(=O)c1c(Cl)cc(=O)oc12,–,"inconclusive: 25.1 µM [inhibitor, single point]"
Cc1cc(-c2nnc(CCC(=O)NCc3ccc(OC(F)(F)F)cc3)o2)no1,inactive: -7%,–
CSc1nc(Sc2ccc(Cl)cc2)c2ccccc2n1,–,active: 15.8 µM
COC(=O)Cc1ccc(NC(=S)NCCC(C)C)cc1,–,active: 10 µM
COc1cccc(C(=O)Nc2nnc(-c3ccc(Cl)cc3)o2)c1,–,"inconclusive: 0.794 µM [inhibitor, single point]"
O=C(CCn1c2c(c3ccccc31)CCCC2)NNC(=O)c1cccc([N+](=O)[O-])c1,–,"inconclusive: 35.5 µM [activator, single point]"
CC1CCN(c2cc(N3CCN(C(=O)c4ccc(F)c(F)c4)CC3)c([N+](=O)[O-])cc2F)CC1,–,"inconclusive: 17.8 µM [activator, single point]"
O=C(CSc1ncn[nH]1)N1N=C2/C(=C/c3ccco3)CCCC2C1c1ccco1 (stereo not given),inactive: -0.478%,–

# From PubChem BioAssay AID2551 (National Center for Advancing Translational Sciences (NCATS), 2010)
